Assay results taken from the supplement of paper PMC10849652.
This is one part of the list.

The chains behind the UniProt entries cited, without tags or fusion partners. Where a name states a change or a piece, a line headed by the entry shows the natural chain unless it says otherwise.
UniProt O75503: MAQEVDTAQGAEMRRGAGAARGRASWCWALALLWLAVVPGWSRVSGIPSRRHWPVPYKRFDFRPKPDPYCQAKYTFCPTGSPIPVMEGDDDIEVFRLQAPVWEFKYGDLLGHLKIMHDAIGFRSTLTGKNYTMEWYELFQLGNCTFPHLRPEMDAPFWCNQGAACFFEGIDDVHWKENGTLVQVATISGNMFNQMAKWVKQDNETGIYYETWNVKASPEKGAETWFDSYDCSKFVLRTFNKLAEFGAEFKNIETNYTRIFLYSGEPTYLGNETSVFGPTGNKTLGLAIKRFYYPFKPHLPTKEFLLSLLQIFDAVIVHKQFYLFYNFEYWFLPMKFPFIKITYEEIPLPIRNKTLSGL
UniProt O43529: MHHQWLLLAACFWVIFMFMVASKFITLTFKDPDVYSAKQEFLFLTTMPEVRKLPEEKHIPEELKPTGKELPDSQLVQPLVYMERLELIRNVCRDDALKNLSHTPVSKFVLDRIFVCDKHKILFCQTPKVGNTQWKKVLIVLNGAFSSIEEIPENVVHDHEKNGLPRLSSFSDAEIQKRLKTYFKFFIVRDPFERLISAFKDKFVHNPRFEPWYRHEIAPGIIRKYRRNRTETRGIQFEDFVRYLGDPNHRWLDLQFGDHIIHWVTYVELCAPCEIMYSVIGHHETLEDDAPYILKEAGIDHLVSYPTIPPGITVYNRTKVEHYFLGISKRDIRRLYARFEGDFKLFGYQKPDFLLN
UniProt P05452, whole entry, looked up: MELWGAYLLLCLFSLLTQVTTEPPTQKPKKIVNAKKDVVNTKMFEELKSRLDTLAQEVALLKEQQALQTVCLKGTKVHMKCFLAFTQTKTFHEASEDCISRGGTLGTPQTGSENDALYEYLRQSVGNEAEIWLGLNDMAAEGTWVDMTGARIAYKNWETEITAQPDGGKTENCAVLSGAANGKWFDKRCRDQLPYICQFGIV
UniProt Q96NY7: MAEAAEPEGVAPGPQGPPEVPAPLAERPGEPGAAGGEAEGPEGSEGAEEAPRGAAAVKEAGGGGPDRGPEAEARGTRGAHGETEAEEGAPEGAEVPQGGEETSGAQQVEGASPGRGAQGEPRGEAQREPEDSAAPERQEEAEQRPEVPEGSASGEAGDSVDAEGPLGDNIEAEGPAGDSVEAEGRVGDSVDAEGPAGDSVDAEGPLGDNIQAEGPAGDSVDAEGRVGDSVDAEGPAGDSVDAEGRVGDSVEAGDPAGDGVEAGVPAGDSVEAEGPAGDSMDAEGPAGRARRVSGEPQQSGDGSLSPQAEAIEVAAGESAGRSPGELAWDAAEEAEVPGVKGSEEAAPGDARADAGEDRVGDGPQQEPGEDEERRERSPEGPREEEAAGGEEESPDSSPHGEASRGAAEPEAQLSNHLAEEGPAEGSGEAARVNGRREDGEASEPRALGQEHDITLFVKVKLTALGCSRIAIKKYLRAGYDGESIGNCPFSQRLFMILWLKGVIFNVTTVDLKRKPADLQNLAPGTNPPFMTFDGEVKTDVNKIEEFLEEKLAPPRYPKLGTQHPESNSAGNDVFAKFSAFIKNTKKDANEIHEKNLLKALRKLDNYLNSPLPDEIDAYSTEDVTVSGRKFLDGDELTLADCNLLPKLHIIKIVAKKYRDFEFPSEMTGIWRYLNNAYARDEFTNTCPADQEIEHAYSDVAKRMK
UniProt Q8IZ52: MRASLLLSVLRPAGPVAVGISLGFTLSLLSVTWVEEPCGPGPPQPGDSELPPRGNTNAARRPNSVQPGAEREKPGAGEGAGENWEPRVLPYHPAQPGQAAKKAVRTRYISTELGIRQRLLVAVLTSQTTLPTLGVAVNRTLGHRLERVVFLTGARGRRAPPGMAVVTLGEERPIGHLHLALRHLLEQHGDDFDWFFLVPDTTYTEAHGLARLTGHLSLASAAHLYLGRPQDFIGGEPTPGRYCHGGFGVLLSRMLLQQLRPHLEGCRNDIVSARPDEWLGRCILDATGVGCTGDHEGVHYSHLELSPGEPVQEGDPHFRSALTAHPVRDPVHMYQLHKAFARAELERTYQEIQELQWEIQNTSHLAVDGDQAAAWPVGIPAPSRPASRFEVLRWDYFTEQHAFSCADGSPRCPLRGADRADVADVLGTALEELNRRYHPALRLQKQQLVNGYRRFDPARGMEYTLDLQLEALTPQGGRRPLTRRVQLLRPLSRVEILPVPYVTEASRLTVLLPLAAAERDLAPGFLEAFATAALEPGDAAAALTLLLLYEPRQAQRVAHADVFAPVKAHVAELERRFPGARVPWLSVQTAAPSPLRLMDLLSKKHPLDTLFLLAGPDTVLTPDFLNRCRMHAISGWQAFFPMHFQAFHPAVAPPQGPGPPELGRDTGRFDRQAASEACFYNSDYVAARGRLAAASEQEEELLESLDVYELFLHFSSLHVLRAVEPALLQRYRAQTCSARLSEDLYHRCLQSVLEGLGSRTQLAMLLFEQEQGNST
UniProt Q9NX76: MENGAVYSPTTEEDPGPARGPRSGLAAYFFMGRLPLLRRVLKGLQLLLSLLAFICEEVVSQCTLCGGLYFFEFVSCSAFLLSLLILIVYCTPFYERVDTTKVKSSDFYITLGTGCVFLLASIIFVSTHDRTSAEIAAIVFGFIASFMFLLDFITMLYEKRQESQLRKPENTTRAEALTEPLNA
UniProt Q14677: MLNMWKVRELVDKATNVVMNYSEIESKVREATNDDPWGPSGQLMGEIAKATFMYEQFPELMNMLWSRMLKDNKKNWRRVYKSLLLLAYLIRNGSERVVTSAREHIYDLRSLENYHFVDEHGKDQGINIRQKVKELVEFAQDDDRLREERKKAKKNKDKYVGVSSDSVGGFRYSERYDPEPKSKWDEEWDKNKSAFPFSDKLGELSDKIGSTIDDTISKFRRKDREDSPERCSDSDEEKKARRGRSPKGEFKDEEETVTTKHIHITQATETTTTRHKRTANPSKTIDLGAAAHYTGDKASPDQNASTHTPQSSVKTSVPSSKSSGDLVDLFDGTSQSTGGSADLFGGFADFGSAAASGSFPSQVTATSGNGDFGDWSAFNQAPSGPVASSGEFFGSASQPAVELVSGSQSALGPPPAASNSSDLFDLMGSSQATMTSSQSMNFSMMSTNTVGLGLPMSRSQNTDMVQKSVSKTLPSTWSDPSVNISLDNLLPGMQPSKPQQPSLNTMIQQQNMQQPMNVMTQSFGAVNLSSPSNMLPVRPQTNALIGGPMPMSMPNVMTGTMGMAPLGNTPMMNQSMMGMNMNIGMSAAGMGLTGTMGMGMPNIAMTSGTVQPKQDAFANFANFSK
UniProt P62633: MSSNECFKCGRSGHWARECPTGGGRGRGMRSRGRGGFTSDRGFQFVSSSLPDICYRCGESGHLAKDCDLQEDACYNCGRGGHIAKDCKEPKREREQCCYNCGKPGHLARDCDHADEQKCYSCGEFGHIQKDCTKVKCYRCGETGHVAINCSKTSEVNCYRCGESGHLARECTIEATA
UniProt Q14011: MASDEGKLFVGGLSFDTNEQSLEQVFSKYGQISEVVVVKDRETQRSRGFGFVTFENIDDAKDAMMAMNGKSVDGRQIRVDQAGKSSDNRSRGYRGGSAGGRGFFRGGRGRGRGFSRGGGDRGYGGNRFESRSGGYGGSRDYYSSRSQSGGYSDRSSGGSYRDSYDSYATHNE
UniProt Q9P003: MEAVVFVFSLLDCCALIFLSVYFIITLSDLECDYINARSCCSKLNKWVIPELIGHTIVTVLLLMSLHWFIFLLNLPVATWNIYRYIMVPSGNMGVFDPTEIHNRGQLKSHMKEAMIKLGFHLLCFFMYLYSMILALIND
UniProt Q13286: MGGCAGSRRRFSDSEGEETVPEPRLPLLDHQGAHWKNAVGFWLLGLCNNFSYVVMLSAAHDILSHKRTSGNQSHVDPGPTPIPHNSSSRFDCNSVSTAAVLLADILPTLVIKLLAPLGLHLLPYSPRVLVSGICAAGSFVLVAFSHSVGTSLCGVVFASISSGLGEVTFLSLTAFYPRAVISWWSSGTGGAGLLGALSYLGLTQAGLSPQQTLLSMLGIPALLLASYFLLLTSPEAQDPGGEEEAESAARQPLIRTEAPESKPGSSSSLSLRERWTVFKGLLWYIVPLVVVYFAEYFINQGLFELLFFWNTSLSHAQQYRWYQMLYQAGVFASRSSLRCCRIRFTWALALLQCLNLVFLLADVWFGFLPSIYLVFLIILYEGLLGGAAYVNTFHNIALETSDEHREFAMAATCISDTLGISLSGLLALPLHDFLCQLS

Assays:
Assay in all cases: log2 fold change, soluble protein after heating vs DMSO (PISA); higher = thermal stabilisation; K562 cells, 10 uM, 30 min; active = over 0.2 and 3.5 SD of the protein, either way, in both replicates (recomputed)
[1] = compound: Cc1ccc(NC(=O)c2ccc(CN3CC[C@H](N(C)C)C3)c(C(F)(F)F)c2)cc1Nc1nccc(-c2cncnc2)n1 [bafetinib]
Procedure, shortened: (§1)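 K562 cells at 2×10^6 cells/mL were treated with 10 μM compound for 30 min. Aliquots were heated for 3 min across 48°C-58°C, pooled, and extracted in PBS with 0.5% NP-40 at 4°C; soluble protein was the supernatant after 21,000xg for 90 min. Soluble protein was quantified by TMTpro 16plex LC-MS/MS with channel sums equalised, and reported as log2 fold change in thermal stability against DMSO controls, with values from duplicates.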

[2] = compound: Cc1cccc(CC(=O)N2CCc3c2ccc(-c2cn(C)c4ncnc(N)c24)c3F)n1
Procedure, shortened: as §1

[3] = compound: Cc1cn(-c2cc(NC(=O)c3ccc(C)c(Nc4nccc(-c5cccnc5)n4)c3)cc(C(F)(F)F)c2)cn1 [nilotinib]
Procedure, shortened: as §1

[4] = compound: Cc1nc(Nc2n[nH]c3c2CN(C(=O)N[C@H](CN(C)C)c2ccccc2)C3(C)C)c2sccc2n1
Procedure, shortened: as §1

[5] = compound: Cc1nc(Nc2ncc(C(=O)Nc3c(C)cccc3Cl)s2)cc(N2CCN(CCO)CC2)n1 [dasatinib]
Procedure, shortened: as §1

[6] = compound: Cc1ncc(-c2ccnc(Nc3ccc(S(C)(=O)=O)cc3)n2)n1C(C)C
Procedure, shortened: as §1

[7] = compound: Cn1cc(-c2ccc3c(c2)CCN3C(=O)Cc2cccc(C(F)(F)F)c2)c2c(N)ncnc21
Procedure, shortened: as §1

[8] = compound: Cn1cncc1[C@@](N)(c1ccc(Cl)cc1)c1ccc2c(c1)c(-c1cccc(Cl)c1)cc(=O)n2C [tipifarnib]
Procedure, shortened: as §1

[9] = compound: FC(F)(F)c1ccc(/C=C/c2nc(COc3ccc(CCCCn4ccnn4)cc3)co2)cc1 [mubritinib]
Procedure, shortened: as §1

[10] = compound: NC(=O)Nc1cc(-c2cccc(F)c2)sc1C(=O)N[C@H]1CCCNC1
Procedure, shortened: as §1

[11] = compound: NC(=O)c1cnc(N[C@@H]2CCCC[C@@H]2N)nc1Nc1cccc(-n2nccn2)c1
Procedure, shortened: as §1

[12] = compound: NC1(c2ccc(-c3nc4ccn5c(=O)[nH]nc5c4cc3-c3ccccc3)cc2)CCC1
Procedure, shortened: as §1

[13] = compound: Nc1ccccc1NC(=O)c1ccc(CNC(=O)OCc2cccnc2)cc1 [entinostat]
Procedure, shortened: as §1

[14] = compound: O=C(CCCCCCC(=O)Nc1ccccc1)NO [vorinostat]
Procedure, shortened: as §1

[15] = compound: O=C(O)c1ccc2c(c1)nc(Nc1cccc(Cl)c1)c1ccncc12 [silmitasertib]
Procedure, shortened: as §1

[16] = compound: O=C1NC(=O)C(c2cnc3ccccn23)=C1c1cn2c3c(cc(F)cc13)CN(C(=O)N1CCCCC1)CC2
Procedure, shortened: as §1

[17] = compound: Cn1cc(-c2ccc3nnc(C(F)(F)c4ccc5ncccc5c4)n3n2)cn1
Procedure, shortened: as §1

[18] = compound: NCC(=O)Nc1ccc(-n2nc(C(F)(F)F)cc2-c2ccc3c(ccc4ccccc43)c2)cc1
Procedure, shortened: as §1

[19] = compound: O=C(CCCCCCNC(=O)c1cnc(N(c2ccccc2)c2ccccc2Cl)nc1)NO [citarinostat]
Procedure, shortened: as §1

[20] = compound: c1cc(OCCN2CCCCC2)cc(-c2n[nH]c3ccc(-c4nnc[nH]4)cc23)c1
Procedure, shortened: as §1

CLN5 (UniProt O75503)
log2 fold change [1]: active: -0.945
log2 fold change [2]: inactive: 0.019
log2 fold change [3]: inactive: 0.041
log2 fold change [4]: inactive: -0.508
log2 fold change [5]: inactive: -0.46
log2 fold change [6]: inactive: 0.026
log2 fold change [7]: inactive: -0.119
log2 fold change [8]: inactive: 0.002
log2 fold change [9]: inactive: -0.169
log2 fold change [10]: inactive: -0.133
log2 fold change [11]: inactive: -0.41
log2 fold change [12]: active: -0.858
log2 fold change [13]: inactive: 0.02
log2 fold change [14]: inactive: -0.087
log2 fold change [15]: inactive: 0.192
log2 fold change [16]: inactive: -0.014

CHST10 (UniProt O43529)
log2 fold change [1]: inactive: -0.036
log2 fold change [2]: inactive: 0.052
log2 fold change [3]: inactive: 0.092
log2 fold change [4]: inactive: -0.081
log2 fold change [6]: inactive: 0.104
log2 fold change [7]: inactive: 0.071
log2 fold change [17]: inactive: -0.09
log2 fold change [8]: inactive: 0.05
log2 fold change [9]: inactive: 0.064
log2 fold change [10]: inactive: 0.059
log2 fold change [11]: inactive: 0.023
log2 fold change [12]: inactive: -0.142
log2 fold change [13]: inactive: 0.048
log2 fold change [14]: inactive: 0.015
log2 fold change [15]: inactive: -0.059
log2 fold change [16]: inactive: -0.032

CLEC3B (UniProt P05452)
log2 fold change [1]: inactive: -0.253
log2 fold change [3]: inactive: 0.072
log2 fold change [4]: inactive: -0.066
log2 fold change [5]: inactive: -0.072
log2 fold change [6]: inactive: 0.385
log2 fold change [7]: inactive: 0.356
log2 fold change [17]: inactive: -0.175
log2 fold change [8]: inactive: -0.045
log2 fold change [9]: inactive: -0.358
log2 fold change [10]: inactive: 0.012
log2 fold change [11]: inactive: -0.01
log2 fold change [12]: inactive: -0.078
log2 fold change [18]: inactive: -0.167
log2 fold change [13]: inactive: -0.111
log2 fold change [19]: inactive: -0.049
log2 fold change [15]: inactive: 0.246
log2 fold change [16]: inactive: 0.068
log2 fold change [20]: inactive: 0.207

CLIC6 (UniProt Q96NY7)
log2 fold change [1]: inactive: 0.005
log2 fold change [3]: inactive: 0.08
log2 fold change [4]: inactive: -0.165
log2 fold change [5]: inactive: 0.163
log2 fold change [6]: inactive: 0.04
log2 fold change [17]: inactive: 0.023
log2 fold change [9]: inactive: 0.025
log2 fold change [10]: inactive: -0.219
log2 fold change [12]: inactive: -0.164
log2 fold change [18]: inactive: -0.127
log2 fold change [13]: inactive: -0.041
log2 fold change [19]: inactive: -0.045
log2 fold change [15]: inactive: 0.091
log2 fold change [16]: inactive: -0.259
log2 fold change [20]: inactive: 0.079

CHPF (UniProt Q8IZ52)
log2 fold change [1]: inactive: 0.189
log2 fold change [3]: inactive: 0.018
log2 fold change [4]: inactive: -0.033
log2 fold change [5]: inactive: -0.112
log2 fold change [6]: inactive: -0.116
log2 fold change [7]: inactive: -0.041
log2 fold change [17]: inactive: -0.013
log2 fold change [8]: inactive: 0.053
log2 fold change [9]: inactive: -0.054
log2 fold change [10]: inactive: 0.087
log2 fold change [11]: inactive: -0.052
log2 fold change [12]: inactive: -0.032
log2 fold change [18]: inactive: 0.294
log2 fold change [13]: inactive: 0.212
log2 fold change [19]: inactive: 0
log2 fold change [15]: inactive: 0.048
log2 fold change [16]: inactive: 0.122
log2 fold change [20]: inactive: -0.142

CMTM6 (UniProt Q9NX76)
log2 fold change [1]: inactive: -0.014
log2 fold change [3]: inactive: 0.101
log2 fold change [4]: inactive: 0.004
log2 fold change [5]: inactive: -0.018
log2 fold change [6]: inactive: -0.025
log2 fold change [7]: inactive: 0.164
log2 fold change [17]: inactive: -0.002
log2 fold change [8]: inactive: -0.11
log2 fold change [9]: inactive: 0.014
log2 fold change [10]: inactive: -0.001
log2 fold change [11]: inactive: -0.05
log2 fold change [12]: inactive: 0.009
log2 fold change [18]: inactive: -0.041
log2 fold change [13]: inactive: -0.056
log2 fold change [19]: inactive: -0.028
log2 fold change [15]: inactive: -0.061
log2 fold change [16]: inactive: -0.042
log2 fold change [20]: inactive: -0.016

CLINT1 (UniProt Q14677)
log2 fold change [1]: inactive: -0.053
log2 fold change [3]: inactive: 0.065
log2 fold change [4]: inactive: -0.048
log2 fold change [5]: inactive: 0.142
log2 fold change [6]: inactive: -0.151
log2 fold change [7]: inactive: 0.047
log2 fold change [9]: inactive: -0.007
log2 fold change [11]: inactive: 0.001
log2 fold change [12]: inactive: 0.037
log2 fold change [18]: inactive: 0.034
log2 fold change [19]: inactive: -0.146
log2 fold change [15]: inactive: 0.021
log2 fold change [16]: inactive: 0.058
log2 fold change [20]: inactive: 0.062

CNBP isoform 4 (UniProt P62633)
log2 fold change [1]: inactive: -0.015
log2 fold change [3]: inactive: 0.146
log2 fold change [4]: inactive: 0.132
log2 fold change [6]: inactive: -0.066
log2 fold change [9]: inactive: 0.045
log2 fold change [12]: inactive: 0.134
log2 fold change [19]: inactive: -0.005
log2 fold change [15]: inactive: 0.058
log2 fold change [20]: inactive: -0.113

CIRBP (UniProt Q14011)
log2 fold change [1]: inactive: 0.155
log2 fold change [2]: inactive: -0.054
log2 fold change [3]: inactive: -0.004
log2 fold change [4]: inactive: 0.103
log2 fold change [5]: inactive: -0.063
log2 fold change [6]: inactive: -0.004
log2 fold change [7]: inactive: 0
log2 fold change [8]: inactive: 0.067
log2 fold change [9]: inactive: -0.034
log2 fold change [11]: inactive: -0.002
log2 fold change [12]: inactive: 0.123
log2 fold change [18]: inactive: 0.042
log2 fold change [14]: inactive: -0.034
log2 fold change [19]: inactive: -0.019
log2 fold change [15]: inactive: 0.146
log2 fold change [16]: inactive: 0.252
log2 fold change [20]: inactive: -0.08

CNIH4 (UniProt Q9P003)
log2 fold change [1]: inactive: 0.122
log2 fold change [3]: inactive: -0.084
log2 fold change [4]: inactive: -0.012
log2 fold change [5]: inactive: -0.104
log2 fold change [6]: inactive: 0.064
log2 fold change [7]: inactive: -0.026
log2 fold change [17]: inactive: 0.028
log2 fold change [8]: inactive: -0.118
log2 fold change [9]: inactive: 0.048
log2 fold change [10]: inactive: -0.079
log2 fold change [11]: inactive: 0.103
log2 fold change [12]: inactive: 0.046
log2 fold change [18]: inactive: 0.094
log2 fold change [13]: inactive: -0.126
log2 fold change [19]: inactive: 0.024
log2 fold change [15]: inactive: 0.099
log2 fold change [20]: inactive: 0.037

CLN3 (UniProt Q13286)
log2 fold change [1]: inactive: -0.099
log2 fold change [3]: inactive: -0.016
log2 fold change [4]: inactive: 0.002
log2 fold change [5]: inactive: 0.064
log2 fold change [6]: inactive: -0.02
log2 fold change [7]: inactive: -0.049
log2 fold change [17]: inactive: 0.028
log2 fold change [8]: inactive: 0.1
log2 fold change [9]: inactive: 0.09
log2 fold change [12]: inactive: -0.112
log2 fold change [18]: inactive: -0.124
log2 fold change [19]: inactive: 0.042
log2 fold change [15]: inactive: 0.025
log2 fold change [16]: inactive: 0.072
log2 fold change [20]: inactive: -0.033
